From PubChem BioAssay AID445 (National Center for Advancing Translational Sciences (NCATS), 2006)
The list shows a part of the results. The main result of the screen is listed elsewhere. These columns were measured beside it and carry no call. The list favours compounds with an active or inconclusive main result. Potencies come from curve fits of mixed quality, noted in brackets.

Test: IkB Signaling
Details: ABC-DLBCL IkBa-CBG/CBR dual luciferase ratio (green luciferase fused to IkBa over red control in OCI-Ly3 lymphoma cells), 4 h; measured here: control luc red channel unless noted
Procedure, shortened: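 Curves were fitted separately to fusion (green), unfused (red) and ratio luminescence, then classed by r2, magnitude and activity. Cells: OCI-Ly3, 4 h compound plus doxycycline at 37C; 10 uM MG-132 defined full response.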

Structure (SMILES) | AC50
COc1cccc(NC(=O)c2c(C)oc3nc(C)nc(N4CCCC4)c23)c1 | 25.1 µM [falling, partial curve, poor fit]
O=C(NCc1ccccc1)c1noc2c1CCCCC2 | 15.8 µM [falling, partial curve]
CCOC(=O)c1cccc(NC(=O)CCS(=O)(=O)c2ccc3c(c2)CCN3C(=O)CC)c1 | 15.8 µM [falling, partial curve, poor fit]
O=C(c1ccc(Cl)cc1)n1nc(-c2cccnc2)nc1NCc1ccc(F)cc1 | 12.6 µM [falling, partial curve]
COc1cccc2cc(-c3nc(-c4ccc(Cl)cc4)cs3)c(=O)oc12 | 0.00631 µM [rising, full curve, poor fit]
COC(=O)C[C@](O)(CCCC(C)(C)O)C(=O)O[C@@H]1C(OC)=C[C@]23CCCN2CCc2cc4c(cc2[C@H]13)OCO4 | 0.00501 µM [falling, full curve]
CC(=O)c1cccc(NC(=O)c2ccc3nc(Cc4ccccc4)oc3c2)c1 | 15.8 µM [falling, partial curve]
CCCCOc1ccc(C(=O)N(Cc2ccccc2)C2CCS(=O)(=O)C2)cc1 (stereo unspecified) | 10 µM [falling, partial curve]
c1ccc(CN2CCN(c3nc(-c4ccccc4)nc(-n4ccnc4)n3)CC2)cc1 | 20 µM [falling, partial curve]
CCOc1ccc(-c2nnc(SCC(=O)Nc3cccc(C#N)c3)o2)cc1 | 10 µM [falling, partial curve]
CC(C)c1ccc(NC(=O)C(c2ccccc2)N2CCN(C(=O)c3ccco3)CC2)cc1 (stereo unspecified) | 20 µM [falling, partial curve]
Cc1cc(C)c2c(c1)c(C)cc1nnc(SCC(=O)c3ccccc3)n12 | 6.31 µM [falling, partial curve]
O=C(Cc1c[nH]c2ccccc12)NCc1ccc2c(c1)OCO2 | 25.1 µM [falling, partial curve]
O=C(CN1C(=O)c2ccccc2Sc2ccc(C(=O)N3CCOCC3)cc21)Nc1ccc(Cl)cc1F | 10 µM [falling, partial curve]
Cc1ccc2onc(CC(=O)N3CCN(c4cccc(Cl)c4)CC3)c2c1 | 25.1 µM [falling, partial curve, poor fit]
CCCCSc1nc2sc3c(c2c(=O)n1-c1ccccc1C)CC(C)(C)OC3 | 12.6 µM [falling, partial curve]
CCOc1ccc(-n2cc(-c3ccccc3)c3c(Nc4cccc(F)c4)ncnc32)cc1 | 39.8 µM [falling, single point]
Cc1ccc(NC(=O)c2cnc(N3CCCC3)nc2C)cc1F | 31.6 µM [falling, partial curve]
CCN(Cc1ccccc1)S(=O)(=O)c1cc(Br)cc2c1N(C(=O)C1CC1)CC2 | 20 µM [falling, partial curve]
Cc1ccc(O)c(NC(=O)C2=CC(c3ccco3)=NS(=O)(=O)N2C)c1 | 20 µM [falling, single point]
O=C(CSc1ncccc1C(=O)Oc1ccccc1Cl)Nc1ccc(C(F)(F)F)cc1Cl | 0.0794 µM [rising, full curve]

Structure (SMILES) | AC50
Cc1ccc(CN(C(=O)COc2ccccc2[N+](=O)[O-])c2ccccn2)o1 | 25.1 µM [falling, single point]
COc1ccc(NC(=O)C2CCCN(S(=O)(=O)c3ccc(F)cc3)C2)cc1 (stereo unspecified) | 10 µM [falling, partial curve]
CCN(CC)S(=O)(=O)c1ccc2c(c1)N(CC(=O)Nc1cccc(C#N)c1)C(=O)CO2 | 39.8 µM [falling, single point]
O=C(c1cnc(N2CCN(c3ncccn3)CC2)c2ccccc12)N1CCN(c2ncccn2)CC1 | 10 µM [falling, partial curve]
CCCN(CCC)C(=O)Cn1c(=O)n(-c2cccc(C)c2)c(=O)c2c1c1cc(OC)ccc1n2C | 3.98 µM [falling, partial curve]
CCCCOc1ccc(C(C)NC(=O)CN2C(=O)CSc3ccc(S(=O)(=O)N4CCOCC4)cc32)cc1 (stereo unspecified) | 39.8 µM [falling, single point]
COc1cccc(-c2cc(C(F)(F)F)nc(NCCc3ccc(OC)c(OC)c3)n2)c1 | 10 µM [falling, partial curve]
O=C(CN1CCCN(Cc2cccc(Cl)c2)S1(=O)=O)Nc1ccc2c(c1)OCCO2 | 20 µM [falling, partial curve]
COc1ccccc1CN1CCC(CNC(=O)c2cnn(-c3ccccc3Cl)c2C2CCN(C(=O)OC(C)(C)C)CC2)CC1 | 25.1 µM [falling, single point]
CCC(=O)Nc1ccc(Cl)c(-c2nc3ccccc3[nH]2)c1 | 15.8 µM [falling, single point]
Cc1cccc(NC(=O)c2ccc(-n3c(C)nnc3C)cc2)c1 | 20 µM [rising, single point] [measured here: IkB-luc green channel]
Cc1ccc(-n2ncc3c(N4CCCCCC4)ncnc32)cc1Cl | 1.58 µM [falling, partial curve]
COc1ccccc1CNC(=O)CCc1c(C)nc2cc(-c3ccc(Cl)cc3)nn2c1C | 0.398 µM [falling, full curve]
Cc1cc2oc(=O)c(CC(=O)NCCc3ccccc3F)c(C)c2c2occ(C(C)(C)C)c12 | 20 µM [falling, partial curve]
CC(=O)Nc1cc(C(=O)NCc2ccc(F)cc2)ccc1Sc1ccc(F)cc1 | 12.6 µM [falling, partial curve, poor fit]
CCCCN(C(=O)C1CCC(CNS(=O)(=O)c2cccc3nsnc23)CC1)c1ccccc1 (stereo unspecified) | 25.1 µM [falling, partial curve]
COc1ccc(CC(=O)NCC(c2cccs2)S(=O)(=O)c2ccc(F)c(C)c2)cc1 (stereo unspecified) | 25.1 µM [falling, single point]
COc1ccccc1C(=O)N/C(=C\c1cn(S(=O)(=O)N(C)C)c2ccccc12)C(=O)NCCCn1ccnc1 | 20 µM [falling, partial curve]
CCc1ccc(CNC(=O)C2CCCN(c3nnc(C)c4c(C)n(-c5ccccc5)nc34)C2)cc1 (stereo unspecified) | 12.6 µM [falling, partial curve]
Cc1cc2n(n1)CCC(=O)N2Cc1ccc(C(=O)Nc2cc(Cl)ccc2C)cc1 | 3.98 µM [falling, partial curve]
COc1ccc(OC)c(NC(=O)C2CCCN(S(=O)(=O)c3ccc4c(c3)CCCC(=O)N4)C2)c1 (stereo unspecified) | 5.01 µM [falling, single point]

Structure (SMILES) | AC50
COc1ccccc1C(=O)Nc1ccc2nc(SCC(=O)N3CCCc4ccccc43)sc2c1 | 0.2 µM [falling, full curve]
COc1ccccc1NC(=O)C1=C(C)Nc2nc(SC)nn2C1c1ccccc1Cl (stereo unspecified) | 25.1 µM [falling, partial curve]
COc1cc(-c2nc(SCC(=O)Nc3ccc4c(c3)OCO4)c(-c3ccccc3)[nH]2)cc(OC)c1OC | 12.6 µM [falling, partial curve]
COc1ccc(-c2nnc(C3CCN(S(=O)(=O)c4cccc(Cl)c4)CC3)o2)cc1 | 15.8 µM [falling, single point]
COc1ccc(-c2nnc(SCC(=O)N3CCC(C)CC3)o2)cc1 | 39.8 µM [falling, single point]
CN(CC(=O)Nc1ccc(Cl)cc1)S(=O)(=O)c1cccc2cccnc12 | 12.6 µM [falling, partial curve]
COc1ccc(NC(=O)N2CCn3c2nc2ccccc23)cc1 | 10 µM [falling, partial curve]
O=C(Nc1sc2c(c1C(=O)NCC1CCCO1)CCCC2)c1cccs1 (stereo unspecified) | 12.6 µM [falling, partial curve]
COc1ccc(OCCn2c(NC(=O)c3ccc(OC)cc3)nc3ccccc32)cc1 | 7.94 µM [falling, partial curve]
CC1CCN(CC[S-])CC1.O.O.[Cl][Pt] | 1.58 µM [falling, partial curve]
O=C1c2c(O)ccc([N+](=O)[O-])c2C(=O)c2c([N+](=O)[O-])ccc(O)c21 | 2.51 µM [falling, full curve]
O=S(=O)(c1ccc(F)cc1)N1CCC(Oc2cccc(C(F)(F)F)c2)CC1 | 25.1 µM [falling, single point]
COc1ccc(S(=O)(=O)N2Cc3ccccc3CC2C(=O)Nc2ccc(C)cc2)cc1OC (stereo unspecified) | 39.8 µM [falling, single point]
CCCC(c1nnnn1C(C)(C)CC)N(Cc1ccco1)Cc1cc2ccc(OC)cc2[nH]c1=O (stereo unspecified) | 10 µM [falling, partial curve]
Cc1c2cnn(-c3ccccc3)c(=O)c2c(C)n1C(C)C(=O)Nc1ccccc1C(F)(F)F (stereo unspecified) | 10 µM [falling, partial curve]
Cc1ccc(C)c(NC(c2ccccc2)c2nnc(-c3ccccc3F)o2)c1 (stereo unspecified) | 12.6 µM [falling, partial curve]
CCOC(=O)CC(NC(=O)Cn1nnc(-c2ccccc2Cl)n1)c1ccc(OC)cc1 (stereo unspecified) | 31.6 µM [falling, single point]
Clc1ccc(CCNc2nc3cc(Cl)c(Cl)cc3n3cnnc23)cc1 | 20 µM [falling, single point]
COC(=O)c1cc(NC(=O)c2oc(=O)c3ccccc3c2-c2ccccc2)cc(C(=O)OC)c1 | 2 µM [rising, full curve]

4 records picked at random from the list so far:
Structure (SMILES) | AC50
CCCC(c1nnnn1C(C)(C)CC)N(Cc1ccco1)Cc1cc2ccc(OC)cc2[nH]c1=O (stereo unspecified) | 10 µM [falling, partial curve]
COc1ccccc1C(=O)Nc1ccc2nc(SCC(=O)N3CCCc4ccccc43)sc2c1 | 0.2 µM [falling, full curve]
O=C(Nc1sc2c(c1C(=O)NCC1CCCO1)CCCC2)c1cccs1 (stereo unspecified) | 12.6 µM [falling, partial curve]
Cc1c2cnn(-c3ccccc3)c(=O)c2c(C)n1C(C)C(=O)Nc1ccccc1C(F)(F)F (stereo unspecified) | 10 µM [falling, partial curve]
